Experimental data published in paper PMC5811048.
The exact form of at least one protein or probe is not confirmed. For some assays here: Whether high values mean tight binding is not given here for every scale.

Protein sequences, listed by entry. Tags and fused reporters are not part of them. Lines headed by an entry give the natural chain unless they say otherwise; changes in a name come on top.
UniProt P0AGE0: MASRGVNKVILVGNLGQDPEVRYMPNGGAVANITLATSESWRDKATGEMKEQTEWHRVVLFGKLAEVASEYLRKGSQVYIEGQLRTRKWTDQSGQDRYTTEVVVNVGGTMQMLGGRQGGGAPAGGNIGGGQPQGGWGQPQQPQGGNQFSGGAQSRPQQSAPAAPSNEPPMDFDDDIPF

Columns and labels:
MDCC-SSB G27C = MDCC-SSB G27C (UniProt P0AGE0); assay: MDCC fluorescence titration; conditions: 50 nM tetramer, 100 or 200 mM NaCl, 3 mM MgCl2, apparent weaker than ssDNA70; 50 mM Tris-HCl pH 7.5, 3 mM MgCl2, 100 mM (or 200 mM) NaCl; MDCC titrations 25 C; recombinant protein
SSB(G26C) G27C = SSB(G26C) G27C (UniProt P0AGE0); assay: tryptophan fluorescence quenching; conditions: apparent affinity, weaker than ssDNA70; 50 mM Tris-HCl pH 7.5, 3 mM MgCl2, 100 mM (or 200 mM) NaCl; MDCC titrations 25 C; recombinant protein; protein details: pET151 vector, His tag (HisTrap purified)

UUAGUUGUUCGUAGUGCUCGUCUGGCUCUGGAUUACCCGCUUAGUUGUUCGUAGUGCUCGUCUGGCUCUG [ssRNA70]
binding signal (nM (saturation point)) (MDCC-SSB G27C): 101
Kd (SSB(G26C) G27C): 200 nM
